Measured values from ChEMBL document CHEMBL5674883, “The Heterochromatin Landscape in Migrating Cells and the Importance of H3K27me3 for Associated Transcriptome Alterations” (Cells, 2018).
This continues a long series; more values of the same kind are listed elsewhere.

By UniProt entry, the sequences of proteins in these tests, tags left out.
UniProt Q61188, whole entry: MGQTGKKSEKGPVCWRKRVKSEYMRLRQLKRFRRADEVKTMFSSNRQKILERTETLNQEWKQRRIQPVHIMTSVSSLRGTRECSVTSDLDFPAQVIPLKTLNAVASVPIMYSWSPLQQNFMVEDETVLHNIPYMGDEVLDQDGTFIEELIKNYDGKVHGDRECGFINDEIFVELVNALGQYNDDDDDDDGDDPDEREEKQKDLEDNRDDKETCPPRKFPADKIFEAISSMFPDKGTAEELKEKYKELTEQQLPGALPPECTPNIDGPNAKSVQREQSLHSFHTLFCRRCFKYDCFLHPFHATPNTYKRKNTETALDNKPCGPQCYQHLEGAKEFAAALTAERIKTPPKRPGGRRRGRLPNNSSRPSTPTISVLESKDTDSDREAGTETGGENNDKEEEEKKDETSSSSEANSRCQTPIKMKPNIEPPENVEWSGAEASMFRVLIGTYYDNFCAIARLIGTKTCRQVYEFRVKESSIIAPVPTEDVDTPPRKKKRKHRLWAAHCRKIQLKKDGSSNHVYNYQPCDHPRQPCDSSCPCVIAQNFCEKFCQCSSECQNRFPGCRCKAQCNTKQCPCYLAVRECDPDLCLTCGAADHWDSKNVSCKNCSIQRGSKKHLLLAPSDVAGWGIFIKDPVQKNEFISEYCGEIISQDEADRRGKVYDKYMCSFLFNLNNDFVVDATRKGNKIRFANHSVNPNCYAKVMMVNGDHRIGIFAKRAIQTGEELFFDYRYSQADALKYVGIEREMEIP

Key:
Type in all cases: cell-based
[1] = molecular target: Histone-lysine N-methyltransferase EZH2 (Mus musculus) (UniProt Q61188); assay: Inhibition of EZH2 in mouse B16-F1 migrating cells assessed as fold change in H3K27me3-dependent regulated Junb-mRNA expression at 3 uM measured by ChIP-seq analysis relative to control cells
[2] = molecular target: Histone-lysine N-methyltransferase EZH2 (Mus musculus) (UniProt Q61188); assay: Inhibition of EZH2 in mouse B16-F1 migrating cells assessed as fold change in H3K27me3-dependent regulated Plaur-mRNA expression at 3 uM measured by ChIP-seq analysis relative to control cells
[3] = molecular target: Histone-lysine N-methyltransferase EZH2 (Mus musculus) (UniProt Q61188); assay: Inhibition of EZH2 in mouse B16-F1 migrating cells assessed as fold change in H3K27me3-independent regulated H2-T23-mRNA expression at 3 uM measured by ChIP-seq analysis relative to control cells
[4] = molecular target: Histone-lysine N-methyltransferase EZH2 (Mus musculus) (UniProt Q61188); assay: Inhibition of EZH2 in mouse B16-F1 migrating cells assessed as fold change in H3K27me3-buffered regulated H2-K1-mRNA expression at 3 uM measured by ChIP-seq analysis relative to control cells
[5] = molecular target: Histone-lysine N-methyltransferase EZH2 (Mus musculus) (UniProt Q61188); assay: Inhibition of EZH2 in mouse B16-F1 migrating cells assessed as fold change in H3K27me3-buffered regulated Adamts14-mRNA expression at 3 uM measured by ChIP-seq analysis relative to control cells
[6] = molecular target: Histone-lysine N-methyltransferase EZH2 (Mus musculus) (UniProt Q61188); assay: Inhibition of EZH2 in mouse B16-F1 migrating cells assessed as fold change in H3K27me3-buffered regulated Etaa1-mRNA expression at 3 uM measured by ChIP-seq analysis relative to control cells
[7] = molecular target: Histone-lysine N-methyltransferase EZH2 (Mus musculus) (UniProt Q61188); assay: Inhibition of EZH2 in mouse B16-F1 migrating cells assessed as fold change in H3K27me3-buffered regulated Rev1-mRNA expression at 3 uM measured by ChIP-seq analysis relative to control cells
[8] = molecular target: Histone-lysine N-methyltransferase EZH2 (Mus musculus) (UniProt Q61188); assay: Inhibition of EZH2 in mouse B16-F1 migrating cells assessed as fold change in H3K27me3-buffered regulated Abca12-mRNA expression at 3 uM measured by ChIP-seq analysis relative to control cells
[9] = molecular target: Histone-lysine N-methyltransferase EZH2 (Mus musculus) (UniProt Q61188); assay: Inhibition of EZH2 in mouse B16-F1 migrating cells assessed as fold change in H3K27me3-buffered regulated Gab1-mRNA expression at 3 uM measured by ChIP-seq analysis relative to control cells
[10] = molecular target: Histone-lysine N-methyltransferase EZH2 (Mus musculus) (UniProt Q61188); assay: Inhibition of EZH2 in mouse B16-F1 migrating cells assessed as fold change in H3K27me3-buffered regulated Wdcp-mRNA expression at 3 uM measured by ChIP-seq analysis relative to control cells
[11] = molecular target: Histone-lysine N-methyltransferase EZH2 (Mus musculus) (UniProt Q61188); assay: Inhibition of EZH2 in mouse B16-F1 migrating cells assessed as fold change in H3K27me3-buffered regulated C130071C03Rik-mRNA expression at 3 uM measured by ChIP-seq analysis relative to control cells
[12] = molecular target: T1, RNA polymerase II (Mus musculus) (UniProt P08775+Q8CFI7+P97760+A0A3Q4L2S8+Q80UW8+P61219+P62488+Q923G2+P60898+O08740+Q63871+P62876); assay: Inhibition of RNA polymerase II in mouse B16-F1 migrating cells assessed as fold change in Cited1-RNA stability at 0.1 mM measured by ChIP-seq analysis relative to control cells
[13] = molecular target: T1, RNA polymerase II (Mus musculus); assay: Inhibition of RNA polymerase II in mouse B16-F1 migrating cells assessed as fold change in Dnajc15-RNA stability at 0.1 mM measured by ChIP-seq analysis relative to control cells
[14] = molecular target: T1, RNA polymerase II (Mus musculus); assay: Inhibition of RNA polymerase II in mouse B16-F1 migrating cells assessed as fold change in Mboat2-RNA stability at 0.1 mM measured by ChIP-seq analysis relative to control cells
[15] = molecular target: T1, RNA polymerase II (Mus musculus); assay: Inhibition of RNA polymerase II in mouse B16-F1 migrating cells assessed as fold change in B3gnt3-RNA stability at 0.1 mM measured by ChIP-seq analysis relative to control cells
[16] = molecular target: T1, RNA polymerase II (Mus musculus); assay: Inhibition of RNA polymerase II in mouse B16-F1 migrating cells assessed as fold change in Acsf3-RNA stability at 0.1 mM measured by ChIP-seq analysis relative to control cells
[17] = molecular target: T1, RNA polymerase II (Mus musculus); assay: Inhibition of RNA polymerase II in mouse B16-F1 migrating cells assessed as fold change in Cdk2ap2-RNA stability at 0.1 mM measured by ChIP-seq analysis relative to control cells
[18] = molecular target: T1, RNA polymerase II (Mus musculus); assay: Inhibition of RNA polymerase II in mouse B16-F1 migrating cells assessed as fold change in Smim20-RNA stability at 0.1 mM measured by ChIP-seq analysis relative to control cells
[19] = molecular target: T1, RNA polymerase II (Mus musculus); assay: Inhibition of RNA polymerase II in mouse B16-F1 migrating cells assessed as fold change in Map2k2-RNA stability at 0.1 mM measured by ChIP-seq analysis relative to control cells
[20] = molecular target: T1, RNA polymerase II (Mus musculus); assay: Inhibition of RNA polymerase II in mouse B16-F1 migrating cells assessed as fold change in Brcc3-RNA stability at 0.1 mM measured by ChIP-seq analysis relative to control cells
[21] = molecular target: T1, RNA polymerase II (Mus musculus); assay: Inhibition of RNA polymerase II in mouse B16-F1 migrating cells assessed as fold change in Naa50-RNA stability at 0.1 mM measured by ChIP-seq analysis relative to control cells
[22] = molecular target: T1, RNA polymerase II (Mus musculus); assay: Inhibition of RNA polymerase II in mouse B16-F1 migrating cells assessed as fold change in Nbeal1-RNA stability at 0.1 mM measured by ChIP-seq analysis relative to control cells
[23] = molecular target: T1, RNA polymerase II (Mus musculus); assay: Inhibition of RNA polymerase II in mouse B16-F1 migrating cells assessed as fold change in Hnrnpr-RNA stability at 0.1 mM measured by ChIP-seq analysis relative to control cells
[24] = molecular target: T1, RNA polymerase II (Mus musculus); assay: Inhibition of RNA polymerase II in mouse B16-F1 migrating cells assessed as fold change in Plk4-RNA stability at 0.1 mM measured by ChIP-seq analysis relative to control cells
[25] = molecular target: T1, RNA polymerase II (Mus musculus); assay: Inhibition of RNA polymerase II in mouse B16-F1 migrating cells assessed as fold change in Scaper-RNA stability at 0.1 mM measured by ChIP-seq analysis relative to control cells
[26] = molecular target: T1, RNA polymerase II (Mus musculus); assay: Inhibition of RNA polymerase II in mouse B16-F1 migrating cells assessed as fold change in Isg20l2-RNA stability at 0.1 mM measured by ChIP-seq analysis relative to control cells
[27] = molecular target: T1, RNA polymerase II (Mus musculus); assay: Inhibition of RNA polymerase II in mouse B16-F1 migrating cells assessed as fold change in Top2a-RNA stability at 0.1 mM measured by ChIP-seq analysis relative to control cells
[28] = molecular target: T1, RNA polymerase II (Mus musculus); assay: Inhibition of RNA polymerase II in mouse B16-F1 migrating cells assessed as fold change in Rnmt-RNA stability at 0.1 mM measured by ChIP-seq analysis relative to control cells
[29] = molecular target: T1, RNA polymerase II (Mus musculus); assay: Inhibition of RNA polymerase II in mouse B16-F1 migrating cells assessed as fold change in Supt16-RNA stability at 0.1 mM measured by ChIP-seq analysis relative to control cells
[30] = molecular target: T1, RNA polymerase II (Mus musculus); assay: Inhibition of RNA polymerase II in mouse B16-F1 migrating cells assessed as fold change in Zfp984-RNA stability at 0.1 mM measured by ChIP-seq analysis relative to control cells

CCCc1cc(C)[nH]c(=O)c1CNC(=O)c1cc(-c2ccnc(N3CCN(C)CC3)c2)cc2c1cnn2C(C)C
log2FC [1]: 0.19
log2FC [2]: 0.09
log2FC [3]: 0.65
log2FC [4]: 0.45
log2FC [5]: 0.45
log2FC [6]: -0.4
log2FC [7]: -0.41
log2FC [8]: -0.49
log2FC [9]: -0.5
log2FC [10]: -0.52
log2FC [11]: -0.95

OC[C@H]1O[C@@H](n2cnc3cc(Cl)c(Cl)cc32)[C@H](O)[C@@H]1O
log2FC [12]: 1.23
log2FC [13]: 0.66
log2FC [14]: 0.61
log2FC [15]: 0.61
log2FC [16]: 0.56
log2FC [17]: 0.52
log2FC [18]: 0.5
log2FC [19]: 0.48
log2FC [20]: -0.44
log2FC [21]: -0.49
log2FC [22]: -0.5
log2FC [23]: -0.5
log2FC [24]: -0.53
log2FC [25]: -0.53
log2FC [26]: -0.54
log2FC [27]: -0.55
log2FC [28]: -0.58
log2FC [29]: -0.74
log2FC [30]: -1.08
